Measurements published in PMC9319246.
These are yes or no findings as the source states them, for the method shown. Binding seen in cells or lysates may run through a third protein. A yes stands for co-enrichment or nearness to the bait. Other partners may have been found. Sequences can lack the tags named with a protein.

Sequences of proteins named here, by UniProt entry; tags and fusion partners are left off.
UniProt Q8IY31: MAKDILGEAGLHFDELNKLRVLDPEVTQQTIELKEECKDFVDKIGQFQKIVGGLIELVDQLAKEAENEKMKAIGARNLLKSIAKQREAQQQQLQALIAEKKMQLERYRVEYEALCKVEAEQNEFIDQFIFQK
UniProt O15446: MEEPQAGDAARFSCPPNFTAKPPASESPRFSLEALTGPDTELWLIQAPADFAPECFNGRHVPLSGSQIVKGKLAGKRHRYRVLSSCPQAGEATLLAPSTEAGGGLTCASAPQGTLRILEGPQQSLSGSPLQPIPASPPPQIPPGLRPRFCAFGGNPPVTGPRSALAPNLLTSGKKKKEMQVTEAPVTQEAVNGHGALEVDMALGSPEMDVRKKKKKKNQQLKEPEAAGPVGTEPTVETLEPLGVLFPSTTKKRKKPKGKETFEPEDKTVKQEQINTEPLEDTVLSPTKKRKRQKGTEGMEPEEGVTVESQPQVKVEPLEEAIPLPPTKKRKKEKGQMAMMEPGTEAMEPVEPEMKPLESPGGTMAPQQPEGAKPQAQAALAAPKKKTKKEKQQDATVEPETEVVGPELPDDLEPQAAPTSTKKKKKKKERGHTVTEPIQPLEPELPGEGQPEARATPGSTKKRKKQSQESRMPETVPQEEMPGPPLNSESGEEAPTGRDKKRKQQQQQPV

T1: Strep/FLAG-tagged IFT88 (UniProt Q13099)
T1 sequence: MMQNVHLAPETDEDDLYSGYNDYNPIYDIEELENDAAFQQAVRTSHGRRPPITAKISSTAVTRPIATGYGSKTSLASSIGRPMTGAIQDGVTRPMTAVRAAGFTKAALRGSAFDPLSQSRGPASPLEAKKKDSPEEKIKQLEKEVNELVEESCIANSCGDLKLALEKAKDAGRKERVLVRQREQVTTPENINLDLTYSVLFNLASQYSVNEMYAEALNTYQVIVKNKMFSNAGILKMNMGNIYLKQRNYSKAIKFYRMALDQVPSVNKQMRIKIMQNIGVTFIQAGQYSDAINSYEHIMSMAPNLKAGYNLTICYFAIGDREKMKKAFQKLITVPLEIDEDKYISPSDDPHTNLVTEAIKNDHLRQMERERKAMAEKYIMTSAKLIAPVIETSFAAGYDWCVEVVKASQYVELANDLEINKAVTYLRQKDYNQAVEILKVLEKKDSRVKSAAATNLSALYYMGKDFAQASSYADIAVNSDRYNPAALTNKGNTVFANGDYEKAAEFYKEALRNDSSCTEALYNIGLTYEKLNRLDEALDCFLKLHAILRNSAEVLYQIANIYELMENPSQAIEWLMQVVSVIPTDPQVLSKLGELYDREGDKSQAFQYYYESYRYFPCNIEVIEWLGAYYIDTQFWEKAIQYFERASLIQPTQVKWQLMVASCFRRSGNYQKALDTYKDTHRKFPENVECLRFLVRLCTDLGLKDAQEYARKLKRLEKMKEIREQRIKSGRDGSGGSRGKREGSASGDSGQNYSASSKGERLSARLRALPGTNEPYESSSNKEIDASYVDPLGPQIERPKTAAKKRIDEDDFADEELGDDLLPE

T2: Strep/FLAG-tagged LCA5 (UniProt Q86VQ0)
T2 sequence: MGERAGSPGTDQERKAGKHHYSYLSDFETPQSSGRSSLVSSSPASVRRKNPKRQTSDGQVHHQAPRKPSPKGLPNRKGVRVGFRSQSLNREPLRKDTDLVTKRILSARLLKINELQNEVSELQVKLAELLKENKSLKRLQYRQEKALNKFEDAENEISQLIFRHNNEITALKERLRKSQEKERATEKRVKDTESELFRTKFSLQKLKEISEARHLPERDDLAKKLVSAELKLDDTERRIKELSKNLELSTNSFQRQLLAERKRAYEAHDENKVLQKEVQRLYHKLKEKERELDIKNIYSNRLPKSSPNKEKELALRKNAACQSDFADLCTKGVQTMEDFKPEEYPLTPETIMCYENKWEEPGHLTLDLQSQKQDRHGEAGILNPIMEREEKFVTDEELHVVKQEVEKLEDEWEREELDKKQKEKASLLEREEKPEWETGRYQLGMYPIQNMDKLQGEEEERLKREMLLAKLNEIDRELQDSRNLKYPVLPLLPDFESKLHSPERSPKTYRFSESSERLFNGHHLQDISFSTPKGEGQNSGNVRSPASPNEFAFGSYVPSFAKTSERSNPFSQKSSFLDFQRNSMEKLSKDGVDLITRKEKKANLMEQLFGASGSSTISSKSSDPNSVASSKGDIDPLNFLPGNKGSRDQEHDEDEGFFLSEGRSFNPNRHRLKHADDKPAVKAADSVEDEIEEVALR

T3: endogenously FLAG-tagged TTC30A (human (endogenous in HEK293T)) (UniProt Q86WT1)
T3 sequence: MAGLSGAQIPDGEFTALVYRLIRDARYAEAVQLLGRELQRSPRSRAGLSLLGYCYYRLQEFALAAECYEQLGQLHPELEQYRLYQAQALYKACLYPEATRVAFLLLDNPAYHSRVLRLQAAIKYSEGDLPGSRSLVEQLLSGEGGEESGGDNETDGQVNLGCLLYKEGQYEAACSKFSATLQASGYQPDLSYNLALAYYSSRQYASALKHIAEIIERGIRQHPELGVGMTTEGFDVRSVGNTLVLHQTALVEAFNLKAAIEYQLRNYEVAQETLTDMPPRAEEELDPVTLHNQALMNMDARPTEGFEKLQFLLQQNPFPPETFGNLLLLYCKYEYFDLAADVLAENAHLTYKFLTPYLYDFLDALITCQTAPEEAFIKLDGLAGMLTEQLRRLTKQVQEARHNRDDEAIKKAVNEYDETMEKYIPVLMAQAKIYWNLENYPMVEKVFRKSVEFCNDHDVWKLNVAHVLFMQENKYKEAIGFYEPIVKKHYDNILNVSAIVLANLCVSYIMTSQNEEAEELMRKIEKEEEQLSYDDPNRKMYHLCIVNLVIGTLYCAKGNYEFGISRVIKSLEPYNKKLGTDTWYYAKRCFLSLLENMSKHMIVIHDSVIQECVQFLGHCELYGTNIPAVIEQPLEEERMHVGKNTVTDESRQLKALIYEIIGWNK


Columns and labels:
Strep/FLAG-tagged IFT88 = target: T1, Strep/FLAG-tagged IFT88; assay: affinity purification with mass spectrometry; Strep-Tactin Superflow on lysates of HEK293T Cas9 control, TTC30B KO and TTC30A/B KO cells transfected with Strep/FLAG-tagged LCA5 or IFT88 (Strep/FLAG-RAF1 as control); Strep elution buffer; label-free LC-MS/MS; four biological replicates
Strep/FLAG-tagged LCA5 = target: T2, Strep/FLAG-tagged LCA5; assay: as above
[1] = target: T3, endogenously FLAG-tagged TTC30A (human (endogenous in HEK293T)); assay: affinity purification with mass spectrometry; anti-Flag-M2-agarose beads on lysates of endogenously FLAG-tagged TTC30A or TTC30B HEK293T cells, serum starved for 16 h; elution with Flag-peptide; label-free LC-MS/MS; six biological replicates against an untagged Cas9 empty-vector control clone

binding (Strep/FLAG-tagged IFT88) | binding (Strep/FLAG-tagged LCA5) | binding [1] | Molecule
binds | binds | – | IFT20 (from UniProt Q8IY31 1-132)
– | – | binds | CD3EAP (from UniProt O15446 1-510)
binds | binds | – | TRAF3IP1 (protein, UniProt Q8TDR0 1-691) MNAAVVRRTQEALGKVIRRPPLTEKLLSKPPFRYLHDIITEVIRMTGFMKGLYTDAEMKSDNVKDKDAKISFLQKAIDVVVMVSGEPLLAKPARIVAGHEPERTNELLQIIGKCCLNKLSSDDAVRRVLAGEKGEVKGRASLTSRSQELDNKNVREEESRVHKNTEDRGDAEIKERSTSRDRKQKEELKEDRKPREKDKDKEKAKENGGNRHREGERERAKARARPDNERQKDRGNRERDRDSERKKETERKSEGGKEKERLRDRDRERDRDKGKDRDRRRVKNGEHSWDLDREKNREHDKPEKKSASSGEMSKKLSDGTFKDSKAETETEISTRASKSLTTKTSKRRSKNSVEGRKEDNISAKSLDSIVSGINNEPNQETTTSEIGTKEANINSTSISDDNSASLRCENIQPNPTEKQKGDSTSDAEGDAGPAGQDKSEVPETPEIPNELSSNIRRIPRPGSARPAPPRVKRQDSMEALQMDRSGSGKTVSNVITESHNSDNEEDDQFVVEAAPQLSEMSEIEMVTAVELEEEEKHGGLVKKILETKKDYEKLQQSPKPGEKERSLFESAWKKEKDIVSKEIEKLRTSIQTLCKSALPLGKIMDYIQEDVDAMQNELQMWHSENRQHAEALQQEQRITDCAVEPLKAELAELEQLIKDQQDKICAVKANILKNEEKIQKMVYSINLTSRR
binds | binds | – | IFT22 (protein, UniProt Q9H7X7 1-185) MLKAKILFVGPCESGKTVLANFLTESSDITEYSPTQGVRILEFENPHVTSNNKGTGCEFELWDCGGDAKFESCWPALMKDAHGVVIVFNADIPSHRKEMEMWYSCFVQQPSLQDTQCMLIAHHKPGSGDDKGSLSLSPPLNKLKLVHSNLEDDPEEIRMEFIKYLKSIINSMSESRDREEMSIMT
binds | binds | – | TTC30B (endogenous, untagged) (protein, UniProt Q8N4P2 1-665) MAGLSGAQIPDGEFTAVVYRLIRNARYAEAVQLLGGELQRSPRSRAGLSLLGYCYYRLQEFALAAECYEQLGQLHPELEQYRLYQAQALYKACLYAEATRVAFLLLDNPAYHSRVLRLQAAIKYSEGDLPGSRSLVEQLPSREGGEESGGENETDGQINLGCLLYKEGQYEAACSKFFAALQASGYQPDLSYNLALAYYSSRQYASALKHIAEIIERGIRQHPELGVGMTTEGIDVRSVGNTLVLHQTALVEAFNLKAAIEYQLRNYEAAQEALTDMPPRAEEELDPVTLHNQALMNMDARPTEGFEKLQFLLQQNPFPPETFGNLLLLYCKYEYFDLAADVLAENAHLIYKFLTPYLYDFLDAVITCQTAPEEAFIKLDGLAGMLTEVLRKLTIQVQEARHNRDDEAIKKAVNEYDETMEKYIPVLMAQAKIYWNLENYPMVEKIFRKSVEFCNDHDVWKLNVAHVLFMQENKYKEAIGFYEPIVKKHYDNILNVSAIVLANLCVSYIMTSQNEEAEELMRKIEKEEEQLSYDDPDKKMYHLCIVNLVIGTLYCAKGNYDFGISRVIKSLEPYNKKLGTDTWYYAKRCFLSLLENMSKHTIMLRDSVIQECVQFLEHCELHGRNIPAVIEQPLEEERMHVGKNTVTYESRQLKALIYEIIGWNI
binds | – | – | LCA5 (endogenous) (protein, UniProt Q86VQ0 1-697) MGERAGSPGTDQERKAGKHHYSYLSDFETPQSSGRSSLVSSSPASVRRKNPKRQTSDGQVHHQAPRKPSPKGLPNRKGVRVGFRSQSLNREPLRKDTDLVTKRILSARLLKINELQNEVSELQVKLAELLKENKSLKRLQYRQEKALNKFEDAENEISQLIFRHNNEITALKERLRKSQEKERATEKRVKDTESELFRTKFSLQKLKEISEARHLPERDDLAKKLVSAELKLDDTERRIKELSKNLELSTNSFQRQLLAERKRAYEAHDENKVLQKEVQRLYHKLKEKERELDIKNIYSNRLPKSSPNKEKELALRKNAACQSDFADLCTKGVQTMEDFKPEEYPLTPETIMCYENKWEEPGHLTLDLQSQKQDRHGEAGILNPIMEREEKFVTDEELHVVKQEVEKLEDEWEREELDKKQKEKASLLEREEKPEWETGRYQLGMYPIQNMDKLQGEEEERLKREMLLAKLNEIDRELQDSRNLKYPVLPLLPDFESKLHSPERSPKTYRFSESSERLFNGHHLQDISFSTPKGEGQNSGNVRSPASPNEFAFGSYVPSFAKTSERSNPFSQKSSFLDFQRNSMEKLSKDGVDLITRKEKKANLMEQLFGASGSSTISSKSSDPNSVASSKGDIDPLNFLPGNKGSRDQEHDEDEGFFLSEGRSFNPNRHRLKHADDKPAVKAADSVEDEIEEVALR
binds | binds | – | IFT80 (protein, UniProt Q9P2H3 1-777) MRLKISLLKEPKHQELVSCVGWTTAEELYSCSDDHQIVKWNLLTSETTQIVKLPDDIYPIDFHWFPKSLGVKKQTQAESFVLTSSDGKFHLISKLGRVEKSVEAHCGAVLAGRWNYEGTALVTVGEDGQIKIWSKTGMLRSTLAQQGTPVYSVAWGPDSEKVLYTAGKQLIIKPLQPNAKVLQWKAHDGIILKVDWNSVNDLILSAGEDCKYKVWDSYGRPLYNSQPHEHPITSVAWAPDGELFAVGSFHTLRLCDKTGWSYALEKPNTGSIFNIAWSIDGTQIAGACGNGHVVFAHVVEQHWEWKNFQVTLTKRRAMQVRNVLNDAVDLLEFRDRVIKASLNYAHLVVSTSLQCYVFSTKNWNTPIIFDLKEGTVSLILQAERHFLLVDGSSIYLYSYEGRFISSPKFPGMRTDILNAQTVSLSNDTIAIRDKADEKIIFLFEASTGKPLGDGKFLSHKNEILEIALDQKGLTNDRKIAFIDKNRDLCITSVKRFGKEEQIIKLGTMVHTLAWNDTCNILCGLQDTRFIVWYYPNTVYVDRDILPKTLYERDASEFSKNPHIVSFVGNQVTIRRADGSLVHISITPYPAILHEYVSSSKWEDAVRLCRFVKEQTMWACLAAMAVANRDMTTAEIAYAAIGEIDKVQYINSIKNLPSKESKMAHILLFSGNIQEAEIVLLQAGLVYQAIQININLYNWERALELAVKYKTHVDTVLAYRQKFLETFGKQETNKRYLHYAEGLQIDWEKIKAKIEMEITKEREQSSSSQSSKSIGLKP
binds | binds | – | CLUAP1 (protein, UniProt Q96AJ1 1-413) MSFRDLRNFTEMMRALGYPRHISMENFRTPNFGLVSEVLLWLVKRYEPQTDIPPDVDTEQDRVFFIKAIAQFMATKAHIKLNTKKLYQADGYAVKELLKITSVLYNAMKTKGMEGSEIVEEDVNKFKFDLGSKIADLKAARQLASEITSKGASLYDLLGMEVELREMRTEAIARPLEINETEKVMRIAIKEILTQVQKTKDLLNNVASDEANLEAKIEKRKLELERNRKRLETLQSVRPCFMDEYEKTEEELQKQYDTYLEKFQNLTYLEQQLEDHHRMEQERFEEAKNTLCLIQNKLKEEEKRLLKSGSNDDSDIDIQEDDESDSELEERRLPKPQTAMEMLMQGRPGKRIVGTMQGGDSDDNEDSEESEIDMEDDDDEDDDLEDESISLSPTKPNRRVRKSEPLDESDNDF
